Paper PMC10981688

Sequences of proteins named here, by UniProt entry; tags and fusion partners are left off. Residues count along the entry.
UniProt Q01518: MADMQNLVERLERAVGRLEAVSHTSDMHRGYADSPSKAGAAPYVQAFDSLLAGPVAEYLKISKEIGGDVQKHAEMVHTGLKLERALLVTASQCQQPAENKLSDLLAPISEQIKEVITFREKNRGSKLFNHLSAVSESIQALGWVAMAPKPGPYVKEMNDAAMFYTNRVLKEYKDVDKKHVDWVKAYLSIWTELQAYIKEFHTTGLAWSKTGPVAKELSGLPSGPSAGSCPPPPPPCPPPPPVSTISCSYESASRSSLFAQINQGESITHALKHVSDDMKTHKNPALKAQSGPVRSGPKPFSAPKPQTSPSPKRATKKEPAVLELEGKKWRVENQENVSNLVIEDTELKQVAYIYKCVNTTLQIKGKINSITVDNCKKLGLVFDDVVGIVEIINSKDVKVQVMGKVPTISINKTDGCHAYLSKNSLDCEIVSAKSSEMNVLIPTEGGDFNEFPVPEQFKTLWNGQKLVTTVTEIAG
UniProt O00206, residues 24-839: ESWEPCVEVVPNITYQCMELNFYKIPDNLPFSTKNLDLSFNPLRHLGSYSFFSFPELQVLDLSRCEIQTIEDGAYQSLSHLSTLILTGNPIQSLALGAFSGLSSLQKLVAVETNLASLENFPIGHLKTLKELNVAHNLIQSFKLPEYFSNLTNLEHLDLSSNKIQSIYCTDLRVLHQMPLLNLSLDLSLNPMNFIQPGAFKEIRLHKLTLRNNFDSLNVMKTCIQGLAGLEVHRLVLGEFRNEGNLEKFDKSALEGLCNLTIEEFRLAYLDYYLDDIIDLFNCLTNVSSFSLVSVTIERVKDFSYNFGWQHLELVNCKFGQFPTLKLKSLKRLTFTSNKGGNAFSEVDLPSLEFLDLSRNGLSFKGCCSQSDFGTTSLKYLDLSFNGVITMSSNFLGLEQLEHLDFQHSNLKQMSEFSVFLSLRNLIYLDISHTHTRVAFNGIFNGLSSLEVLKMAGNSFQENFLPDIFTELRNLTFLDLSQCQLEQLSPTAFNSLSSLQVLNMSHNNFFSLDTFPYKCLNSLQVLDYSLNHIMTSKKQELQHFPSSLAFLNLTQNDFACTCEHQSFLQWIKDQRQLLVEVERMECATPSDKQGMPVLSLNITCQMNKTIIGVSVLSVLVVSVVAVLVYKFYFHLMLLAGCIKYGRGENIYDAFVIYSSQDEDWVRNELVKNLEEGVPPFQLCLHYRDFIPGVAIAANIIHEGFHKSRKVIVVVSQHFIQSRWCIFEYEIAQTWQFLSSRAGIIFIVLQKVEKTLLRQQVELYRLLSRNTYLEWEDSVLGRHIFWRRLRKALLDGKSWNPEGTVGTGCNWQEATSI

Key:
[1] = molecular target: CAP1-hFc, a fusion of human CAP1 with the Fc region of human immunoglobulin (human) (UniProt Q01518); assay: ELISA; competitive ELISA; 96-well plate coated with human Fc-CAP1, 160 µM 6x His-PCSK9 with 10 or 50 µM IgG, evolocumab or hFc-CAP1, 2 h at room temperature; detection with anti-6x His-HRP; both purified
[2] = molecular target: CAP1, endogenous in THP-1 monocytes (human (endogenous in THP-1)) (UniProt Q01518); assay: co-IP; immunoprecipitation of endogenous proteins from THP-1 lysates (CAP1 and PCSK9 antibodies; CAP1, Syk and PKCδ), immunoblot
[3] = molecular target: TLR4, endogenous in THP-1 monocytes (human (endogenous in THP-1)) (UniProt O00206); assay: proximity ligation; Duolink proximity ligation assay in THP-1 cells with primary antibodies against PCSK9, CAP1 or TLR4; cells treated with CTRL, TLR4, LOX1 or CAP1 siRNA; red dots per cell counted
[4] = molecular target: CAP1, endogenous in THP-1 monocytes (human (endogenous in THP-1)) (UniProt Q01518); assay: as above

Substance	binding [1]	binding [2]	binding [3]	binding [4]
recombinant human PCSK9 with 6x His tag (proprotein convertase subtilisin/kexin type-9) (from UniProt Q8NBP7)	binds			
PCSK9, endogenous in THP-1 monocytes (from UniProt Q8NBP7)		binds	binds	binds

Results are given in words; binding and its absence hold for the method and conditions named. A result given as binding can be weak or reduced; the word gives no strength. For some of these results: Binding seen in cells or lysates may run through a third protein.
